Laboratory results: PubChem BioAssay AID504764 (Drosophila RNAi Screening Center, 2011)
In all, the deposit lists about 22,000 reagents; this is a random part of those that have a named target and a result. Of all reagents, 403 (1.9%) got an active call. 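Unnormalised raw counts per well; ratio z-scores behind the hit calls and whether each hit raises or lowers signal are not deposited.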 Reagents against one gene are numbered here. Names joined by + are all predicted targets of the reagent. Reagent sequences are not shown. Not given: the amount of reagent.

Purpose: 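Genome-wide screen for regulators of Notch-driven gene expression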 (primary screen)
Cells: Drosophila Kc167 cells
Reagents: long dsRNA against Drosophila genes
Time to read-out: about 5 days (4 days dsRNA, then 24 h after transfection)
Challenge: transfection of constitutively active membrane-tethered Notch lacking the extracellular domain, read 24 h later
Read-out: 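Firefly luciferase from an E(spl)m3 reporter with active Notch, plus control-promoter and uninduced reporter wells for normalisation; unnormalised counts, duplicate wells a and b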
Reading the numbers: induced reporter light, run 1, well a and induced reporter light, run 1, well b: higher = more light from the Notch target reporter with active Notch; control promoter light, run 1, well a and control promoter light, run 1, well b: higher = more light from the viral control promoter (cell number, transfection, viability); uninduced reporter light, run 1, well a: higher = more light from the Notch target reporter without active Notch
Hit rule: 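Hit if the duplicate-averaged log2 ratio of induced to control-promoter light gives a plate-wise z beyond ±2, or induced to uninduced beyond ±1.8; weak-control or discordant-duplicate wells dropped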
Meaning of the calls: active = modifier hit (raised or lowered Notch signal); inactive = not a hit

no.	target	dsRNA no.	induced reporter light, run 1, well a	induced reporter light, run 1, well b	control promoter light, run 1, well a	control promoter light, run 1, well b	uninduced reporter light, run 1, well a	call
1	Clic	1	2.29e5	2.65e5	2.67e5	2.87e5	15935	inactive
2	CG31998	1	2.15e5	2.01e5	2.84e5	2.49e5	15145	inactive
3	CG31998	2	1.40e5	1.36e5	2.15e5	2.61e5	8738	inactive
4	CG12964	1	16955	14380	17240	16635	4850	inactive
5	sals	1	1.14e5	1.17e5	89430	67785	9428	inactive
6	sals	2	64260	52710	98450	50855	4005	inactive
7	Cyp6t1	1	82595	1.14e5	1.01e5	1.24e5	9370	inactive
8	CG30325	1	1.20e5	1.07e5	1.90e5	1.38e5	9455	inactive
9	CG15725	1	1.22e5	1.13e5	2.25e5	2.03e5	7795	inactive
10	dmrt11E	1	1.27e5	1.17e5	1.89e5	1.97e5	8428	inactive
11	CG5162	1	99355	86720	1.08e5	81760	13010	inactive
12	Eig71Ea	1	1.64e5	1.59e5	1.99e5	1.61e5	6690	inactive
13	CG11703	1	1.68e5	1.61e5	2.24e5	1.95e5	10955	inactive
14	CheA75a	1	1.24e5	1.31e5	71925	77135	10905	inactive
15	Jheh3	1	93080	87430	1.60e5	1.65e5	8360	inactive
16	Kal1	1	1.33e5	1.47e5	1.62e5	1.70e5	13250	inactive
17	ND-51	1	60415	51730	64950	54965	5240	inactive
18	CG12229	1	1.36e5	1.33e5	1.89e5	1.44e5	6730	inactive
19	Eig71Eb	1	2.05e5	1.88e5	2.32e5	1.93e5	7730	inactive
20	unc80	1	1.43e5	1.80e5	2.16e5	1.86e5	13995	inactive
21	CG9518	1	1.05e5	75215	1.24e5	91625	13155	inactive
22	tadr	1	1.66e5	2.35e5	1.72e5	1.55e5	13490	inactive

Laid out differently: results already given
CG12964
- induced reporter light, run 1, well a: 16955
- induced reporter light, run 1, well b: 14380
- control promoter light, run 1, well a: 17240
- control promoter light, run 1, well b: 16635
- uninduced reporter light, run 1, well a: 4850
- call: inactive

sals #1
- induced reporter light, run 1, well a: 1.14e5
- induced reporter light, run 1, well b: 1.17e5
- control promoter light, run 1, well a: 89430
- control promoter light, run 1, well b: 67785
- uninduced reporter light, run 1, well a: 9428
- call: inactive

sals #2
- induced reporter light, run 1, well a: 64260
- induced reporter light, run 1, well b: 52710
- control promoter light, run 1, well a: 98450
- control promoter light, run 1, well b: 50855
- uninduced reporter light, run 1, well a: 4005
- call: inactive

Cyp6t1
- induced reporter light, run 1, well a: 82595
- induced reporter light, run 1, well b: 1.14e5
- control promoter light, run 1, well a: 1.01e5
- control promoter light, run 1, well b: 1.24e5
- uninduced reporter light, run 1, well a: 9370
- call: inactive

The listing continues:
no.	target	dsRNA no.	induced reporter light, run 1, well a	induced reporter light, run 1, well b	control promoter light, run 1, well a	control promoter light, run 1, well b	uninduced reporter light, run 1, well a	call
23	betaCOP	1	51090	39645	47455	35135	4970	inactive
24	lin-52	1	1.22e5	1.18e5	2.72e5	2.81e5	11200	inactive
25	Mtmr6	1	1.67e5	1.38e5	1.78e5	1.75e5	13215	inactive
26	CG34109	1	88675	1.29e5	67835	85425	17325	inactive
27	CG34109	2	1.13e5	1.26e5	60260	91425	15885	inactive
28	CG34109	3	76670	1.03e5	52415	68505	13790	inactive
29	CG1545	1						inactive
30	CG15731	1	51625	52710	58260	46930	4565	inactive
31	CG13670	1	2.75e5	2.64e5	2.37e5	2.42e5	6905	inactive
32	Gmd	1	1.39e5	2.00e5	2.09e5	2.14e5	16200	inactive
33	CG6867	1	53710	49660	65565	60250	8640	inactive
34	CG33013 (retired record)	1	1.01e5	1.11e5	1.29e5	1.29e5	8955	inactive
35	CG5089	1	1.20e5	1.03e5	2.13e5	2.79e5	9665	inactive
36	eIF2gamma	1	5895	4325	6645	4420	455	inactive
37	eIF2gamma	2	1.46e5	1.34e5	90800	76480	10825	inactive
38	CG16813	1	1.39e5	1.53e5	1.18e5	1.21e5	12270	inactive
39	CG42541	1	1.44e5	1.33e5	2.65e5	2.44e5	10575	inactive
40	CG42541	2	7660	7140	12435	12350	2685	inactive
41	CG42541	3	1.74e5	1.55e5	3.39e5	2.60e5	12182	inactive
42	SmydA-2	1	91645	63970	64050	62835	5270	inactive
43	Prm	1	1.82e5	2.33e5	1.75e5	2.37e5	15932	inactive
44	Prm	2	1.69e5	1.57e5	1.98e5	2.01e5	9785	inactive
45	Prm	3	1.03e5	1.10e5	70490	25650	10410	inactive
46	CR31700	1	92470	68070	64255	96355	7960	inactive
47	CG17931 + CG42446	1	2.02e5	2.57e5	1.68e5	1.81e5	16845	inactive
48	COX5BL	1	1.61e5	1.40e5	1.73e5	1.48e5	10260	inactive
49	Gclc	1	2.02e5	1.78e5	4.03e5	3.82e5	15205	inactive
50	CG8230	1	1.62e5	1.57e5	1.80e5	1.73e5	12620	inactive
